Shown are survivors of the treated group in tumour-free mice. Counts of survivors are from the toxicity check (mostly the fifth day) where no day follows; animals may have died later. Schedule codes are those of the source, read here as Q, the interval in days (D) or hours (H), X, the number of doses.
Tested on: B6D2F1 mice, nontumored toxicity test, survival
Test: NCI In Vivo Anticancer Drug Screen. Data for tumor model Nontumored Animals (Toxicity Test) in B6D2F1 (BDF1) mice
Settings: vehicle: water

OC(CCl)CN1CC[N+]2(CC1)CC[N+]1(CCN(CC(O)CCl)CC1)CC2 (stereo not given)
survivor count (dose: 4.0 mg/kg/injection, schedule: Q03HX024 (ip)): 8 of 8 | survivor count (dose: 8.0 mg/kg/injection, schedule: Q03HX016 (ip)): 8 of 8 | survivor count (dose: 8.0 mg/kg/injection, schedule: Q03HX024 (ip)): 8 of 8 | survivor count (dose: 16.0 mg/kg/injection, schedule: Q01DX009 (ip)): 8 of 8 | survivor count (dose: 16.0 mg/kg/injection, schedule: Q03HX008 (ip)): 8 of 8 | survivor count (dose: 16.0 mg/kg/injection, schedule: Q03HX016 (ip)): 7 of 7 | survivor count (dose: 16.0 mg/kg/injection, schedule: Q03HX024 (ip)): 8 of 8 | survivor count (dose: 32.0 mg/kg/injection, schedule: Q01DX005 (ip)): 8 of 8 | survivor count (dose: 32.0 mg/kg/injection, schedule: Q01DX009 (ip)): 8 of 8 | survivor count (dose: 32.0 mg/kg/injection, schedule: Q03HX008 (ip)): 8 of 8 | survivor count (dose: 32.0 mg/kg/injection, schedule: Q03HX016 (ip)): 8 of 8 | survivor count (dose: 32.0 mg/kg/injection, schedule: Q03HX024 (ip)): 8 of 8 | survivor count (dose: 32.0 mg/kg/injection, schedule: Q04DX003 (ip)): 8 of 8 | survivor count (dose: 64.0 mg/kg/injection, schedule: Q01DX001 (ip)): 8 of 8 | survivor count (dose: 64.0 mg/kg/injection, schedule: Q01DX001 (oral)): 8 of 8 | survivor count (dose: 64.0 mg/kg/injection, schedule: Q01DX005 (ip)): 8 of 8 | survivor count (dose: 64.0 mg/kg/injection, schedule: Q01DX009 (ip)): 8 of 8 | survivor count (dose: 64.0 mg/kg/injection, schedule: Q01DX009 (oral)): 8 of 8 | survivor count (dose: 64.0 mg/kg/injection, schedule: Q03HX008 (ip)): 8 of 8 | survivor count (dose: 64.0 mg/kg/injection, schedule: Q03HX016 (ip)): 8 of 8 | survivor count (dose: 64.0 mg/kg/injection, schedule: Q03HX024 (ip)): 8 of 8 | survivor count (dose: 64.0 mg/kg/injection, schedule: Q04DX003 (ip)): 8 of 8 | survivor count (dose: 64.0 mg/kg/injection, schedule: Q08DX002 (ip)): 8 of 8 | survivor count (dose: 128.0 mg/kg/injection, schedule: Q01DX001 (ip)): 8 of 8 | survivor count (dose: 128.0 mg/kg/injection, schedule: Q01DX001 (oral)): 8 of 8 | survivor count (dose: 128.0 mg/kg/injection, schedule: Q01DX005 (ip)): 8 of 8 | survivor count (dose: 128.0 mg/kg/injection, schedule: Q01DX009 (ip)): 8 of 8 | survivor count (dose: 128.0 mg/kg/injection, schedule: Q01DX009 (oral)): 8 of 8 | survivor count (dose: 128.0 mg/kg/injection, schedule: Q03HX008 (ip)): 8 of 8 | survivor count (dose: 128.0 mg/kg/injection, schedule: Q03HX016 (ip)): 8 of 8 | survivor count (dose: 128.0 mg/kg/injection, schedule: Q04DX003 (ip)): 8 of 8 | survivor count (dose: 128.0 mg/kg/injection, schedule: Q08DX002 (ip)): 8 of 8 | survivor count (dose: 256.0 mg/kg/injection, schedule: Q01DX001 (ip)): 8 of 8 | survivor count (dose: 256.0 mg/kg/injection, schedule: Q01DX001 (oral)): 8 of 8 | survivor count (dose: 256.0 mg/kg/injection, schedule: Q01DX005 (ip)): 8 of 8 | survivor count (dose: 256.0 mg/kg/injection, schedule: Q01DX009 (ip)): 8 of 8 | survivor count (dose: 256.0 mg/kg/injection, schedule: Q01DX009 (oral)): 8 of 8 | survivor count (dose: 256.0 mg/kg/injection, schedule: Q03HX008 (ip)): 0 of 8 | survivor count (dose: 256.0 mg/kg/injection, schedule: Q04DX003 (ip)): 8 of 8 | survivor count (dose: 256.0 mg/kg/injection, schedule: Q08DX002 (ip)): 8 of 8 | survivor count (dose: 512.0 mg/kg/injection, schedule: Q01DX001 (ip)): 8 of 8 | survivor count (dose: 512.0 mg/kg/injection, schedule: Q01DX001 (oral)): 8 of 8 | survivor count (dose: 512.0 mg/kg/injection, schedule: Q01DX005 (ip)): 4 of 8 | survivor count (dose: 512.0 mg/kg/injection, schedule: Q01DX009 (oral)): 8 of 8 | survivor count (dose: 512.0 mg/kg/injection, schedule: Q04DX003 (ip)): 8 of 8 | survivor count (dose: 512.0 mg/kg/injection, schedule: Q08DX002 (ip)): 8 of 8 | survivor count (dose: 1024.0 mg/kg/injection, schedule: Q01DX001 (ip)): 7 of 8 | survivor count (dose: 1024.0 mg/kg/injection, schedule: Q01DX001 (oral)): 8 of 8 | survivor count (dose: 1024.0 mg/kg/injection, schedule: Q01DX009 (oral)): 8 of 8 | survivor count (dose: 1024.0 mg/kg/injection, schedule: Q08DX002 (ip)): 8 of 8
